# Literature values as cited in US20040018253A1, “Use of CYP2D6 inhibitors in combination therapies” (priority 1999, published 2004).
# Assays:
# [1] = increasing dose; not observed in poor metabolizers; cited from earlier work
# [2] = poor vs extensive metabolizers; cited from earlier work
smiles,measurement,setting,value
CCCNCC(O)COc1ccccc1C(=O)CCc1ccccc1 (centres unmarked) [propafenone],dose-exposure relationship,[1],supraproportional
same,"exposure after oral administration, PM's vs. EM's",[2],4.2 fold
